Reference: the supplement of paper PMC7661543
± gives the standard deviation of the averaged measurements. The effect of the compound repeats well; differences between the knockouts mostly do not.

System: ZR-75-1
Test: relative cell number vs DMSO control (72 h) (% of DMSO); higher = less growth inhibition (more cells)
Experimental: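 QMAP-Seq: a pool of 5 breast cancer cell lines (ZR-75-1, SKBR3, HCC-38, MDA-MB-231, BT-20), each carrying 12 doxycycline-inducible Cas9 sgRNA perturbations (11 knockouts plus non-targeting sgNT), was treated with compounds for 72 h at four 10-fold doses (10 nM-10 uM or 1 nM-1 uM range). Barcodes were amplified and sequenced, and cell number was interpolated from 293T spike-in standard curves. The result is expressed as % of the median of DMSO wells. Two biological replicates.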

[1] = sgRNA knockout: sgATF3, 1000 nM
[2] = sgRNA knockout: sgATF3, 10000 nM
[3] = sgRNA knockout: sgATF4, 1000 nM
[4] = sgRNA knockout: sgATF4, 10000 nM
[5] = sgRNA knockout: sgATF6, 1000 nM
[6] = sgRNA knockout: sgATF6, 10000 nM
[7] = sgRNA knockout: sgATG7, 1000 nM
[8] = sgRNA knockout: sgATG7, 10000 nM
[9] = sgRNA knockout: sgERN1, 1000 nM
[10] = sgRNA knockout: sgERN1, 10000 nM
[11] = sgRNA knockout: sgHSF2, 1000 nM
[12] = sgRNA knockout: sgHSF2, 10000 nM
[13] = sgRNA knockout: sgNFE2L2, 10 nM
[14] = sgRNA knockout: sgNFE2L2, 100 nM
[15] = sgRNA knockout: sgNFE2L2, 1000 nM
[16] = sgRNA knockout: sgNFE2L2, 10000 nM
[17] = sgRNA knockout: sgSLC35F2, 10 nM
[18] = sgRNA knockout: sgSLC35F2, 100 nM
[19] = sgRNA knockout: sgSLC35F2, 1000 nM
[20] = sgRNA knockout: sgSLC35F2, 10000 nM
[21] = sgRNA knockout: sgXBP1, 1000 nM
[22] = sgRNA knockout: sgXBP1, 10000 nM

Row | SMILES | relative cell number (sgRNA knockout: sgATF3, 10 nM) | relative cell number (sgRNA knockout: sgATF3, 100 nM) | relative cell number [1] | relative cell number [2] | relative cell number (sgRNA knockout: sgATF4, 10 nM) | relative cell number (sgRNA knockout: sgATF4, 100 nM) | relative cell number [3] | relative cell number [4] | relative cell number (sgRNA knockout: sgATF6, 10 nM) | relative cell number (sgRNA knockout: sgATF6, 100 nM) | relative cell number [5] | relative cell number [6] | relative cell number (sgRNA knockout: sgATG7, 10 nM) | relative cell number (sgRNA knockout: sgATG7, 100 nM) | relative cell number [7] | relative cell number [8] | relative cell number (sgRNA knockout: sgERN1, 10 nM) | relative cell number (sgRNA knockout: sgERN1, 100 nM) | relative cell number [9] | relative cell number [10] | relative cell number (sgRNA knockout: sgHSF2, 10 nM) | relative cell number (sgRNA knockout: sgHSF2, 100 nM) | relative cell number [11] | relative cell number [12] | relative cell number [13] | relative cell number [14] | relative cell number [15] | relative cell number [16] | relative cell number [17] | relative cell number [18] | relative cell number [19] | relative cell number [20] | relative cell number (sgRNA knockout: sgXBP1, 10 nM) | relative cell number (sgRNA knockout: sgXBP1, 100 nM) | relative cell number [21] | relative cell number [22]
1 | COc1cc2c(Oc3ccc4[nH]c(C)cc4c3F)ncnc2cc1OCCCN1CCCC1 [Cediranib] | 88.8 ± 20 | 90.1 ± 8.1 | 97.5 ± 4.8 | 17.4 ± 4.4 | 127 ± 21 | 138 ± 66 | 104 ± 25 | 12.3 ± 0.14 | 93.5 ± 12 | 108 ± 10 | 85.7 ± 2.5 | 7.18 ± 1 | 83 ± 0.97 | 79.2 ± 32 | 90.1 ± 14 | 16.5 ± 2.8 | 122 ± 1.9 | 95 ± 26 | 76.1 ± 29 | 13 ± 3.1 | 75.5 ± 15 | 78 ± 17 | 97 ± 24 | 13.1 ± 2.2 | 93.7 ± 1 | 93.8 ± 2.6 | 83.1 ± 7.5 | 18.2 ± 4.5 | 136 ± 2.5 | 149 ± 18 | 141 ± 19 | 16.3 ± 7.1 | 89 ± 2.5 | 88.5 ± 24 | 65.5 ± 11 | 14.3 ± 0.44
2 | Nc1ncn([C@H]2C[C@H](O)[C@@H](CO)O2)c(=O)n1 [Decitabine] | 91.9 ± 3.6 | 72 ± 16 | 56.3 ± 6.1 | 47.7 ± 1.4 | 91.3 ± 18 | 70.7 ± 13 | 56.7 ± 14 | 42 ± 1.8 | 99.6 ± 12 | 77.1 ± 14 | 48.9 ± 30 | 43.2 ± 29 | 76.8 ± 24 | 112 ± 26 | 63.7 ± 20 | 31.8 ± 8.3 | 90.4 ± 18 | 79.6 ± 2.9 | 75.1 ± 9.6 | 40.6 ± 0.54 | 102 ± 14 | 94.2 ± 10 | 65.4 ± 3 | 37.8 ± 0.78 | 81.6 ± 1.2 | 91.9 ± 5.2 | 55.2 ± 2.5 | 39.1 ± 5.2 | 71.5 ± 5.1 | 61.3 ± 23 | 61.4 ± 5.8 | 26.5 ± 10 | 75.5 ± 9.8 | 80.6 ± 13 | 72.83 ± 0.55 | 39.6 ± 2.2
3 | Cc1ccc(NC(=O)c2ccc(CN3CCN(C)CC3)cc2)cc1Nc1nc(-c2cccnc2)cs1 [Masitinib] | 124 ± 8.4 | 91.6 ± 7.6 | 93.9 ± 14 | 31.7 ± 2.1 | 78.3 ± 20 | 89.5 ± 10 | 84.7 ± 5.9 | 29.7 ± 2 | 86.5 ± 5.6 | 108 ± 30 | 81 ± 6.3 | 21.7 ± 6.9 | 86.5 ± 20 | 124 ± 41 | 65.3 ± 7.2 | 20.5 ± 3.1 | 93.7 ± 8.5 | 84.8 ± 9 | 67.6 ± 31 | 27 ± 2 | 103 ± 23 | 95.8 ± 1.3 | 96.1 ± 2.4 | 27 ± 1.1 | 77.3 ± 18 | 84.1 ± 9 | 89.7 ± 20 | 20.2 ± 5.9 | 108 ± 16 | 73.4 ± 5.3 | 85 ± 28 | 17.7 ± 2.7 | 95.4 ± 7.3 | 73.6 ± 9.2 | 69.7 ± 18 | 24.6 ± 4.8
4 | O=c1[nH]cc(F)c(=O)[nH]1 [5-Fluorouracil] | 138 ± 43 | 111 ± 19 | 58.4 ± 23 | 45.9 ± 12 | 80.7 ± 2.9 | 103 ± 30 | 55.9 ± 16 | 54.8 ± 3 | 55.8 ± 4.5 | 71 ± 1.2 | 59 ± 1.8 | 36.8 ± 9 | 101 ± 1.3 | 110 ± 57 | 66.4 ± 9.6 | 27.4 ± 4.1 | 83.8 ± 7.5 | 104 ± 29 | 79.4 ± 13 | 47 ± 0.24 | 107 ± 28 | 133 ± 56 | 70.3 ± 2.2 | 31.3 ± 6 | 99.8 ± 7.1 | 93.7 ± 6.2 | 75.5 ± 6.3 | 33.2 ± 17 | 77.4 ± 14 | 146 ± 7.3 | 43.2 ± 4.9 | 47.4 ± 16 | 103 ± 22 | 103 ± 30 | 75.4 ± 22 | 29.9 ± 2.6
5 | O=C(NOCC(O)CO)c1cc(Br)c(F)c(F)c1Nc1ccc(I)cc1F (configuration not stated) | 91.2 ± 21 | 82.9 ± 26 | 91.5 ± 10 | 63.6 ± 9.8 | 141 ± 44 | 102 ± 31 | 65.3 ± 8.3 | 98.9 ± 22 | 142 ± 21 | 91.9 ± 12 | 97 ± 9.6 | 50.6 ± 22 | 121 ± 22 | 72.5 ± 3 | 71.5 ± 9.4 | 77.6 ± 3.6 | 113 ± 2.1 | 74 ± 11 | 86.4 ± 23 | 60.1 ± 19 | 89.1 ± 7.1 | 85.4 ± 20 | 76.5 ± 16 | 69.7 ± 21 | 112 ± 54 | 114 ± 25 | 81.4 ± 5.8 | 60.5 ± 11 | 115 ± 34 | 76.4 ± 27 | 119 ± 14 | 51.7 ± 13 | 110 ± 34 | 101 ± 20 | 73.8 ± 9.8 | 52.1 ± 1.8
6 | COc1cccc2cc(-c3nc([C@H]4CC[C@H](C(=O)O)CC4)n4ncnc(N)c34)[nH]c12 [OSI027] | 107 ± 34 | 74.8 ± 2.4 | 59.3 ± 9.6 | 29.3 ± 1.5 | 109 ± 24 | 161 ± 54 | 73.9 ± 5 | 33.1 ± 15 | 68.6 ± 3.5 | 109 ± 22 | 56.9 ± 12 | 22.2 ± 6.5 | 72.6 ± 24 | 130 ± 14 | 60.3 ± 35 | 17.1 ± 2.6 | 84.5 ± 3.1 | 115 ± 42 | 66.8 ± 16 | 37.9 ± 3.9 | 104 ± 12 | 99.6 ± 31 | 59.2 ± 1.7 | 27.5 ± 5.1 | 107 ± 22 | 109 ± 15 | 69.1 ± 19 | 29.8 ± 4.2 | 90.8 ± 33 | 105 ± 56 | 40 ± 11 | 33.2 ± 6.1 | 95.033 ± 0.085 | 106 ± 8.3 | 73.2 ± 19 | 28 ± 4
7 | Clc1ccc(C2(c3ccc(-c4cn[nH]c4)cc3)CCNCC2)cc1 [AT7867] | 96.7 ± 23 | 139 ± 19 | 85.9 ± 12 | 10.2 ± 3.6 | 87.7 ± 42 | 89.6 ± 26 | 83.4 ± 14 | 16.6 ± 2.7 | 67.2 ± 13 | 130 ± 52 | 78.1 ± 39 | 13.8 ± 0.93 | 79.6 ± 16 | 114 ± 44 | 74.4 ± 26 | 8.94 ± 1.6 | 95.4 ± 22 | 102 ± 34 | 91.05 ± 0.87 | 13.2 ± 3.8 | 90.2 ± 11 | 113.7 ± 0.55 | 64.8 ± 17 | 11.3 ± 2.9 | 80.3 ± 14 | 114 ± 3.8 | 87.2 ± 25 | 11.5 ± 0.16 | 118 ± 14 | 96.01 ± 0.6 | 26.5 ± 5.3 | 16.4 ± 1.7 | 84.5 ± 1.5 | 105 ± 20 | 78.4 ± 12 | 9.22 ± 5
